# The full ranking holds about 33,000 sequences; the median of “E-score (-0.5 to 0.5)” is about -0.016, and the highest 2% start at about 0.3. The list shows a part of the results.
# Biological target: T1, Yer184c (UniProt P39961)
# T1 sequence: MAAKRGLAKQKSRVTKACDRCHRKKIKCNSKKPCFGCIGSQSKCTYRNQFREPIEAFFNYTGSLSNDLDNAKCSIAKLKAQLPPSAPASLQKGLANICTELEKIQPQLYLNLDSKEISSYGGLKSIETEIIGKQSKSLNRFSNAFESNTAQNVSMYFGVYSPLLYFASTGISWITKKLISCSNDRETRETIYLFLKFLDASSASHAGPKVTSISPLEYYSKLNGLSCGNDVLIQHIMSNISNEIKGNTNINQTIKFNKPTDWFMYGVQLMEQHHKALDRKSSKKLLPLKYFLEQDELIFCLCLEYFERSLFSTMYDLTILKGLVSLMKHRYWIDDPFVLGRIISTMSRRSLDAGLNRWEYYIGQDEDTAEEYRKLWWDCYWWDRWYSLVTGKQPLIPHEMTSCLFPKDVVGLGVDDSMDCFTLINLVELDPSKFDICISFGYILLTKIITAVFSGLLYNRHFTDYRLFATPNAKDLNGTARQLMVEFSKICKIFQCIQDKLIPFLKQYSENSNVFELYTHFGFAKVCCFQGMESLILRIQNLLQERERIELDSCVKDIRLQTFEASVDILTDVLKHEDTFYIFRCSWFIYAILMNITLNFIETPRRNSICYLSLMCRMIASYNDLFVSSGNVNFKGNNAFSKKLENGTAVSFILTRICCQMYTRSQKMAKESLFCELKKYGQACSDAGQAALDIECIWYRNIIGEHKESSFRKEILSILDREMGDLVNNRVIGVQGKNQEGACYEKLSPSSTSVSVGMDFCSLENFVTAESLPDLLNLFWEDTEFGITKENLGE
# Experiment: PBM E-score (8-mer binding enrichment) (E-score (-0.5 to 0.5)); higher = stronger / more preferred TF binding
# Conditions: protein concentration: 100 nM; construct: GST-full length
# Method in brief: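 E-scores (a modified Wilcoxon-Mann-Whitney statistic) were assigned by the Universal PBM Analysis Suite to every ungapped eight-base word pooled with its reverse complement. The input came from universal all-10-mer Agilent arrays made double-stranded by primer extension and probed with GST-tagged yeast transcription factors at about 100-200 nM. Fluorescent anti-GST detected bound protein, and masliner normalised the scans.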
row,Sequence,PBM E-score
1,CTGCGCTC,-0.212
2,ATGTGGCG,-0.161
3,GTGTATAA,-0.195
4,GCCCTCGC,-0.152
5,CCCGGGCC,0.217
6,CCGACTGA,0.00051
7,AATAGGGT,-0.0516
8,CCGACGCC,0.127
9,CACACTCA,0.168
10,AGCCTCCC,-0.288
11,ATACACTA,0.0555
12,ACACAAAG,-0.00525
13,CAAGTATG,0.018
14,TCGAGCGA,0.0474
15,CCGCACAC,-0.0891
16,CAAATCAA,0.00381
17,CCTGATTA,0.0969
18,AGATCGGA,0.34
19,AATTGTCC,0.101
20,ACAGTACA,-0.0103
21,CAGATATA,0.201
22,CACGCTCC,-0.187
23,CGAATCCG,0.269
24,AGCCTTTC,-0.184
25,GAAGTCAA,0.0553

row,Sequence,PBM E-score
1,ATTCAACA,0.173
2,CCTTTAAC,0.156
3,AATCCTTA,-0.0386
4,ATTCGCGA,-0.0163
5,CCCCCCCG,-0.398
6,AAAAGCCT,-0.179
7,ATAGTCAT,0.0263
8,CGCCGGCA,0.345
9,CAAAGGCC,-0.247
10,ACGGGCCA,-0.131
11,GACTGTGC,-0.202
12,CCCCTGCG,-0.338
13,CCGACCCA,0.0239
14,AACAGTAC,0.109
15,CTTGAGGC,-0.148
16,AAGTACGC,-0.188
17,ATTGTACA,0.111
18,TTATGCAA,0.00822
19,ACGCTGGC,-0.12
20,ACTGAACG,-0.129
21,GTGACAGA,0.0748
22,AGACAGTG,-0.0878
23,AGACTTTA,-0.00366
24,AGCACAGA,0.181
25,GAAATCTA,0.162

row,Sequence,PBM E-score
1,AGAATTCT,0.294
2,CCTGTCGC,-0.17
3,ATGTCTGG,0.00901
4,AGGGAATG,-0.206
5,GTAGTTTA,0.14
6,CCTTTTTC,0.167
7,GAATAGCA,-0.0272
8,GAAACGAC,0.00667
9,ACCCCGTA,-0.137
10,AAAAAAAC,0.106
11,CAAGGACG,-0.207
12,ACCTAACA,0.142
13,GCTGCACA,-0.159
14,ACTTGAGG,-0.26
15,CAAAAGGA,0.125
16,AGAGAGCT,-0.195
17,CCAGGCCG,0.14
18,CGCACATA,-0.219
19,AGTTGGGG,-0.135
20,ATTCAAGA,0.0949
21,GACGAACA,0.242
22,GGCAGAAA,0.296
23,CGCTAGTC,-0.269
24,GTCCTCAC,-0.111
25,AAGTACAC,-0.0152

# Shown bar-delimited: entries from further up
row | Sequence | PBM E-score
13 | GCTGCACA | -0.159
14 | ACTTGAGG | -0.26
15 | CAAAAGGA | 0.125
16 | AGAGAGCT | -0.195

# More entries

row,Sequence,PBM E-score
1,CTCGTCTA,-0.00971
2,AACGGCTA,0.188
3,ATAGGCCC,-0.281
4,AAGCAATA,-0.106
5,ACATTAAC,0.0339
6,AGTTCCGC,0.305
7,ACGAGGAT,-0.132
8,CTCCTTAC,-0.118
9,AGCGTCCT,-0.172
10,GTTTTTCA,0.156
11,ATCGCATA,0.104
12,GAAAACCA,-0.0101
13,ATGGGATA,-0.295
14,TGACTCAA,-0.0362
15,ATCCAAAT,0.0417
16,GCGGGCCC,0.0335
17,CCCTCTTC,-0.386
18,ATTCCCAA,-0.0678
19,ACTGCTCA,0.0955
20,GGTCCTTA,0.0747
21,AGATTCCG,0.338
22,CATATTAA,0.256
23,ACAGCCGG,0.343
24,ACCAAGCA,-0.111
25,AGTTATGC,0.0743

row,Sequence,PBM E-score
1,ACCGCCTA,-0.152
2,ACAGCACC,-0.0581
3,CCATTTTC,0.0722
4,GGTTTGGA,-0.135
5,ATGTCGTG,-0.082
6,AGTTATAA,0.0816
7,CTAATTCA,-0.0318
8,CGCATGTA,-0.136
9,CGTACAAG,-0.0379
10,AAGCTCGA,0.242
11,ACTGTTAC,-0.257
12,ATGTCTGA,-0.0779
13,CAGTGAAA,0.165
14,ATCCAGCA,-0.0307
15,CCGCATAC,0.0315
16,GCGTATAC,0.0684
17,GGTCAGCA,-0.0368
18,AGGAGAAC,-0.157
19,CGTTGTAC,0.0468
20,ATGGAGTA,-0.0278
21,GTGAGGGA,-0.252
22,TAAGCACA,0.189
23,GTCCTCAA,0.0117
24,AATTCTGA,0.128
25,CGGGTCCC,-0.255

row,Sequence,PBM E-score
1,GACGCGGA,0.136
2,CAACGTCG,-0.0505
3,ATCCCATG,-0.297
4,ATGTGCTC,0.0673
5,CTCAAGGC,-0.0742
6,ATACACTC,0.12
7,GGCGCGTA,-0.194
8,GATATTCC,0.16
9,CGCATATA,-0.0227
10,CCCCCCTA,-0.437
11,TATGCACA,-0.112
12,ACTTTACC,0.152
13,TGGGATAA,-0.0513
14,TCCTAGGA,-0.0423
15,ATGATTCC,0.162
16,GAGTCGAA,0.0806
17,CTTCAGGA,0.0876
18,AGTCAAAA,0.176
19,ACACTTCA,0.0716
20,CCAGCATA,-0.183
21,ATCGGTCC,0.0402
22,CCTGATAG,-0.287
23,AGAGCTCG,0.0783
24,GTCTCGGA,0.227
25,AGGCTTGC,-0.319

row,Sequence,PBM E-score
1,ACATCGGT,-0.155
2,AAGAGCAA,-0.0457
3,CCCATAGA,-0.292
4,CGCTAAAA,-0.0854
5,GTGCGCAC,0.162
6,ACCGCCAG,-0.144
7,AAGTGACG,0.057
8,GAAAGTAA,0.0735
9,CTTGACCC,0.0538
10,GTTCTATA,0.118
11,AGATCAGG,-0.0506
12,AGCGTCAC,-0.232
13,CTTCATGC,-0.0559
14,AATGACAT,0.0886
15,TAAAGTAA,0.0272
16,CATTGAAC,0.166
17,ACCTCAAG,-0.127
18,AGCACGGG,-0.0491
19,ACGTGCCG,0.233
20,CAATAGAG,-0.242
21,CATACCTA,-0.249
22,GGAGCAGA,-0.0207

# Pulled one by one from above, 3 records:
row,Sequence,PBM E-score
16,GAGTCGAA,0.0806
13,ATGGGATA,-0.295
10,GTTTTTCA,0.156

# Reference: the supplement of paper PMC3334620
